Paper PMC10758104
These are yes or no findings as the source states them, for the method shown. In cells and extracts the contact can be indirect. These calls come from enrichment with a bait or labelling near it, and not all partners need be listed. Where a sequence is shown, tags or fusion partners need not be part of it.

Molecular target: T1, SLC40A1 (Flag-tagged, overexpressed in cardiomyocytes of Slc40a1 transgenic mice) (UniProt Q9JHI9)
T1 sequence: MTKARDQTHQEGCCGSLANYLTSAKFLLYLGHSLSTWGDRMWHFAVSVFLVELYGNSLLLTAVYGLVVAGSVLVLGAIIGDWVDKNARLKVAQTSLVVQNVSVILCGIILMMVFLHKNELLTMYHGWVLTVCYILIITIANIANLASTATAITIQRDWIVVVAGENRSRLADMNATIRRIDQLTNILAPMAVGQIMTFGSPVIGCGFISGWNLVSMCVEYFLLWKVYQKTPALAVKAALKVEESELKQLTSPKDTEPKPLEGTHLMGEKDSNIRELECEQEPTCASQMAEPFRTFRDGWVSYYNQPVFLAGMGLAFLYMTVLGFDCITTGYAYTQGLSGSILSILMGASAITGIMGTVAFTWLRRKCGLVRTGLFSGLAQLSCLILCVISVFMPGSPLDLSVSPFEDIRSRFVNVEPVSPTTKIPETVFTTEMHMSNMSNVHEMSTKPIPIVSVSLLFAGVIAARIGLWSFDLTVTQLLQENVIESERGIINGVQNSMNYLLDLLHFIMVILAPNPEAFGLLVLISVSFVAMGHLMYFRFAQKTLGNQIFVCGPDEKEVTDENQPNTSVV
Experiment: affinity purification with mass spectrometry; Co-IP from mouse heart lysate followed by LC-MS/MS for Flag-interacting proteins (Q Exactive HF-X, EASY-nLC 1200)

binding: binds
B1: Steap4 (six transmembrane epithelial antigen of prostate 4) (protein, UniProt Q923B6 1-470)
chain: MEKAHADEFPLTTDSSEKQGVVCIFGTGDFGKSLGLKMLQCGYSIVFGSRNPQVSSLLPRGAEVLSYSEAASKSDIIILAMHREHYDSLTELVDYLKGKVLVDVSNNRKINQYPESNAEYLAQLEPGAHVVKAFNTISAWALQSGTLDASRQVFVCGNDSKAKQRVMDIARTLGLTPLDQGSLMAASEIENYPLQLFPMWRFPFYLSSVLCVFFFVYCAIREVIYPYVNGKTDATYRLAISIPNRVFPITALILLALVYLPGILAAILQLYRGTKYRRFPNWLDHWMLCRKQLGLVALGFAFLHVIYTLVIPIRYYVRWRLRNATITQALTNKDSPFITSYAWINDSYLALGILGFFLFLLLGITSLPSVSNMVNWREFRFVQSKLGYLTLVLCTAHTLVYGGKRFLSPSILRWSLPSAYILALVIPCAVLVLKCILIMPCIDKTLTRIRQGWERNSKYTQSALNGKSDI
